In all, about 31,000 sequences went through this assay and about 1,400 (4.5%) were called active.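 The calls were made as follows: active = median seed-adjusted z-score above 1 or below -1; inactive = the rest.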 Some of the results follow.

The experiment can be described thus: Novel Modifiers of Survival Motor Neuron (SMN) Protein: Gene Identification via Genome-wide siRNA Screen.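 Also: luminescence tracks full-length SMN protein made from the SMN2 reporter.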 The following applies: HEK293T SMN2-luciferase reporter, siRNA knockdown, 72 h; actives lie on both sides. In outline: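 siRNA screen, 10418 genes ×3 siRNAs; 1 pmol/well, lipid reverse transfection into HEK293T SMN2-luc reporter line. 72 h, 37 °C, 5% CO2; ONE-Glo readout. Data: neg-ctrl normalized, log10, MAD; hit = MAD >1.0 or < -1.0.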
As for CGACAAUGCGCCUUACUUUTT against PCDHGA12, the median seed-adjusted z-score was inactive: 0.561. For GACUACCAGUUGAUCAUGUTT against TTBK1 the value was inactive: 0.00054; for GGAAGGAACCAUCCAGUAATT against POLR2L, active: -1.19. Take GGUACAUCACGGAAAGGAATT against LCTL: the median seed-adjusted z-score is inactive: -0.0821. Under AAAUGCAACCCAAAAAGUATT against CCT7 stands inactive: -0.246; under CCACAGUUACCUCAGCAAATT against RASSF3, inactive: -0.323. As to CCUAUCCCUUUAUCACGUATT against CHRNB3, the median seed-adjusted z-score is inactive: -0.0155. As for GGCAAAAACUGUGAAUUAUTT against F10, the median seed-adjusted z-score is inactive: -0.0033. Consider GGAAAGAGCUGGUGAUGAATT against CLEC4F, for which the median seed-adjusted z-score is inactive: 0.347.

In the case of CCGGGUUUAUGAUAUUCCATT against CYBB, the median seed-adjusted z-score was inactive: 0.0487. In the case of GCCUACUCAUCUGCCAAGATT against DUPD1, the median seed-adjusted z-score is inactive: -0.406.

In the case of CCAAGUAAUCCAUAACGCATT against ZNF528, the median seed-adjusted z-score is inactive: -0.0746. GGUAGUGCUUAUACCUAUATT against SLC15A1: the median seed-adjusted z-score is inactive: -0.693.

Turning to GAAAUGAGAAGAUACAAUATT against WBSCR17, the median seed-adjusted z-score was inactive: 0.

On to CUGUUGCAAUUGGACAUUUTT against AQP4, for which the median seed-adjusted z-score was inactive: -0.361. On to GCCGCUAGCUUUUCAGACATT against GPR124, for which the median seed-adjusted z-score was inactive: 0.00658.

For GGCUUAAUGUGGUGAUGUUTT against COL7A1, the median seed-adjusted z-score is active: 1.08. In the case of GAAAACGACUUCUAAGUUATT against TMTC3, the median seed-adjusted z-score was inactive: 0.266. For the sequence GGAGAUGCACAACAUCUUATT against PIP4K2B, the median seed-adjusted z-score is inactive: 0.17. Consider UUGAUAAGGUUAAACCACATT against CSTA, for which the median seed-adjusted z-score was inactive: -0.351. Take CCCUCGUUGAGAUCAAAGATT against KIF21B: the median seed-adjusted z-score is inactive: 0.934. For GCAAAUUCACAGGCAAUUUTT against DHCR7, the median seed-adjusted z-score was inactive: 0.00451. In the case of GAAUCAUCCUAAUAUAGGUTT against MARK1, the median seed-adjusted z-score was inactive: 0.341.

As for GGGCGAUCCUGCUUCCAAATT against GRN, the median seed-adjusted z-score was inactive: -0.767. On to GCGGCAAUCUUGGGAGUAATT against TMPRSS11B, for which the median seed-adjusted z-score is inactive: -0.545.

Turning to AACUGGUGCUGGUCAAUUATT against ERF, the median seed-adjusted z-score is inactive: -0.0288.

Consider GUCCUCAAGUGUGUGGUCATT against BOK, for which the median seed-adjusted z-score was inactive: 0. For AGUCAGUGUUCGUCAUCCATT against ZNF446 the value was inactive: 0.0496; for CUAUGGUACUUGCUGGACUTT against PAEP, inactive: -0.0632; for GUGUCGAGUUAGCUACAAATT against KIFAP3, inactive: 0.403.

On to GCCUUGUUCCUGAGAGUGATT against CD247, for which the median seed-adjusted z-score is inactive: -0.522. Turning to CAACAGGCCUUAUUCCACUTT against SOD2, the median seed-adjusted z-score was inactive: -0.558. Turning to GAGAGACCCUCGUCCUUUATT against CYP20A1, the median seed-adjusted z-score was inactive: -0.796.

With GGUCACCUGUAUUCGCUGUTT against ZNRD1, the median seed-adjusted z-score was inactive: -0.133. Regarding GGUAUUACUCACAAACAAATT against IL1RL1, the median seed-adjusted z-score is inactive: -0.286. Turning to GGGAUCCGAUAACCAAGAATT against POLR3F, the median seed-adjusted z-score was inactive: 0. As to CCUGUGCAUCUAUCACAAATT against ZNRF1, the median seed-adjusted z-score was inactive: -0.808. Consider UCAUCUCGUUGGACCGUUATT against GPR135, for which the median seed-adjusted z-score was inactive: 0.546.

In the case of GGAAAUCUGAGCUUACUGATT against ZNF649, the median seed-adjusted z-score is inactive: 0.259. For AGCACAUCCUCUUCGUCAATT against GPX5 the value was inactive: 0.0205.

For GGAUGGGAUUCGCAACUAATT against SPTLC3, the median seed-adjusted z-score is inactive: 0.279. Consider CAGUGUCCGUGGUUGCUAATT against ACR, for which the median seed-adjusted z-score is inactive: -0.655.

For the sequence CCCAAUAUGUGCGGAUUAATT against DSC3, the median seed-adjusted z-score was inactive: 0.18. Take CCCUCAUGCUCUCAUACAATT against CPN2: the median seed-adjusted z-score was inactive: 0.0491. Under CGGAAUUCUUCGUUACUCATT against ZNF813 stands inactive: 0.127; under CGAAAGUAUCUGGAGCUAATT against PAN2, inactive: -0.139.

For the sequence ACGGCAAAGUGUUUUGUGATT against LIMD1, the median seed-adjusted z-score was inactive: 0.587. Regarding GGAGUUCUUUGAUGAGAAATT against PPP2R1A, the median seed-adjusted z-score is inactive: 0.973.

Consider GAUACACUCCCUAUACUAUTT against NXF3, for which the median seed-adjusted z-score is inactive: 0.672. GAGUUGUCUUCAAACUUAUTT against SMYD3: the median seed-adjusted z-score was inactive: 0.1.

As for GGGAUUAACAUUUACUGCATT against ZRANB3, the median seed-adjusted z-score is inactive: 0.0516.

Consider GGACGCAGGUUUCUGUUUATT against CHRFAM7A, for which the median seed-adjusted z-score is inactive: 0.115. As for GAGACUCCAUUGCCGAAAATT against ZNF223, the median seed-adjusted z-score was inactive: 0.367. CCACAAUUCCACACCCAAATT against CACNG3: the median seed-adjusted z-score is inactive: -0.189. CAUCCGGACUACUUCCAAATT against ABCC5: the median seed-adjusted z-score is inactive: 0.00533.

With GAAGAUACUCAACGAAUUATT against DIAPH2, the median seed-adjusted z-score is inactive: -0.0149. On to GUCCCUCAGCUAUCACAGATT against ZFP57, for which the median seed-adjusted z-score was inactive: -0.267.

In the case of CCUUUCUGGUGAUCACGAATT against LARP7, the median seed-adjusted z-score was inactive: -0.483. GAAAAGGCGAAGACAAUCATT against CDC14C: the median seed-adjusted z-score was inactive: 0.437.

On to CCUGUACGAUGAGAUAGAATT against CYFIP2, for which the median seed-adjusted z-score was inactive: -0.322. With AGAUCGACUUGAUCGUGCATT against CDK10, the median seed-adjusted z-score was inactive: 0.327. Take ACAUAGGCAUGGUAUCACATT against ASAH2: the median seed-adjusted z-score is inactive: 0.615. For GAAUCAGCUCUUCACUAUATT against GLCE the value was inactive: 0.752; for GCUAAAGAGAGAUAUGGAATT against DARS, inactive: 0. For GAGUUCAGCCUGCACCACATT against PRRX2 the value was inactive: -0.141; for AGUCUUCGGUGGCCAGGUATT against FUT6, inactive: 0.282; for GGUGGACUCCGAUUAUCAATT against STXBP1, inactive: -0.0496. On to GACCGACUCAGAUAUCAUUTT against SNRPA, for which the median seed-adjusted z-score is active: -2.09.

Source of the values: PubChem BioAssay AID1347426 (Functional Genomics Laboratory (NCATS/FGL), 2020).
